In PMC12053450:
Results are given in words; binding and its absence hold for the method and conditions named. Binding seen in cells or lysates may run through a third protein.

Chains of the proteins cited; added tags and fusions are not shown. Residues count along the entry.
UniProt P04608: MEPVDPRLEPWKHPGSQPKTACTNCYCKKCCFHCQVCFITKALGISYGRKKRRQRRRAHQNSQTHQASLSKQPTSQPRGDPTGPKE
UniProt O15455, residues 24-904: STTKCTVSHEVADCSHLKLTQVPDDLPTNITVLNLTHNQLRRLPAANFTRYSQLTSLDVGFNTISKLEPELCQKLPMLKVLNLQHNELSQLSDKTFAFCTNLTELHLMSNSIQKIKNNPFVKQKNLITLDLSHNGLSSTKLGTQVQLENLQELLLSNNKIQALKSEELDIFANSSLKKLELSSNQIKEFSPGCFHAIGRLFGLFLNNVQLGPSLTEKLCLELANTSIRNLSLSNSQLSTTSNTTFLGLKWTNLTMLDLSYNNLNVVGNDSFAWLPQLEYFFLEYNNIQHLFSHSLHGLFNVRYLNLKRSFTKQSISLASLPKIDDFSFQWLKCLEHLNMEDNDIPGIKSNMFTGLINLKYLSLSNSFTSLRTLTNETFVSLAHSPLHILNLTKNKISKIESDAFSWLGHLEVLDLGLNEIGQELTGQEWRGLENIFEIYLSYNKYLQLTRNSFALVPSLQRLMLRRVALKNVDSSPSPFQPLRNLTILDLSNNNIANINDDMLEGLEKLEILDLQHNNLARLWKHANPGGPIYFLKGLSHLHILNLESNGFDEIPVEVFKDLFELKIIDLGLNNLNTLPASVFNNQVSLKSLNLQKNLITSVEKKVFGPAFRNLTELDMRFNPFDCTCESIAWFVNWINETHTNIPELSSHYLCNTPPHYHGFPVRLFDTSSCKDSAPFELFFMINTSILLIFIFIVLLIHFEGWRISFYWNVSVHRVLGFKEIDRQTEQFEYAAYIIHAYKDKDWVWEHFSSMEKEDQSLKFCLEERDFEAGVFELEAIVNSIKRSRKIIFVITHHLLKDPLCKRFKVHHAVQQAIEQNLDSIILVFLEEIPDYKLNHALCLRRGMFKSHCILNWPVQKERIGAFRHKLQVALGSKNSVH

Molecular target: biotinylated Tat HIV-1 IIIB (HIV-1 IIIB) (UniProt P04608)
Experiment: pull-down; 10 μg biotinylated Tat (IIIB) on streptavidin agarose resin as bait; precleared U87MG lysate (NP-40 buffer, 400 μl) incubated overnight at 4°C; eluate immunoblotted; non-biotinylated Tat as negative control; only the target purified

For “TLR3 (from UniProt O15455 24-904) (receptor)”, the binding was “no binding”.
